# Test system: HEK-293T
# Assay: Multiplex assay against HEK293T
# Format: toxicity, cell-based
# Conditions: human
# Outline: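 Live cells were stained at seeding with Hoechst33342, BioTracker Green Microtubule Cytoskeleton Dye, MitoTracker Red and Annexin V Alexa Fluor 680. Following compound addition, they were imaged on a CQ1 microscope at 37°C and 5% CO2 and gated by CellPathfinder machine learning into Hoechst high-intensity objects or normal cells, with normal cells split into healthy, pyknosed or fragmented nuclei and pyknosed cells into mitotic or apoptotic. Tubulin, mitochondrial-mass and membrane-permeability phenotypes are per cents of healthy-nucleus cells.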
# [1] = 12 h, 1 µM, compound concentration 1 uM, replicate 2
smiles,measurement,setting,value
NC(=O)c1ccc2nc(-c3ccc(C4(N)CCC4)cc3)c(-c3ccccc3)n2n1 [BAY-1125976],Population Membrane Permeable-Phenotype (%),"0 h, 1 µM, compound concentration 1 uM, replicate 1",2%
same,Population Membrane Permeable-Phenotype (%),"0 h, 1 µM, compound concentration 1 uM, replicate 2",0%
same,Population Membrane Permeable-Phenotype (%),"0 h, 10 µM, compound concentration 10 uM, replicate 1",3%
same,Population Membrane Permeable-Phenotype (%),"0 h, 10 µM, compound concentration 10 uM, replicate 2",0%
same,Population Membrane Permeable-Phenotype (%),"12 h, 1 µM, compound concentration 1 uM, replicate 1",10%
same,Population Membrane Permeable-Phenotype (%),[1],7%
same,Population Pyknosed Nuclei (%),[1],7%
same,Population Membrane Permeable-Phenotype (%),"12 h, 10 µM, compound concentration 10 uM, replicate 1",4%
same,Population Membrane Permeable-Phenotype (%),"12 h, 10 µM, compound concentration 10 uM, replicate 2",1%
same,Population Membrane Permeable-Phenotype (%),"24 h, 1 µM, compound concentration 1 uM, replicate 1",9%
same,Population Membrane Permeable-Phenotype (%),"24 h, 1 µM, compound concentration 1 uM, replicate 2",10%
same,Population Membrane Permeable-Phenotype (%),"24 h, 10 µM, compound concentration 10 uM, replicate 1",10%
same,Population Membrane Permeable-Phenotype (%),"24 h, 10 µM, compound concentration 10 uM, replicate 2",5%
